For this series, the target named is T1, sigma32 (RpoH) wild type (E. coli) (UniProt P0AGB3).
T1 sequence (looked up): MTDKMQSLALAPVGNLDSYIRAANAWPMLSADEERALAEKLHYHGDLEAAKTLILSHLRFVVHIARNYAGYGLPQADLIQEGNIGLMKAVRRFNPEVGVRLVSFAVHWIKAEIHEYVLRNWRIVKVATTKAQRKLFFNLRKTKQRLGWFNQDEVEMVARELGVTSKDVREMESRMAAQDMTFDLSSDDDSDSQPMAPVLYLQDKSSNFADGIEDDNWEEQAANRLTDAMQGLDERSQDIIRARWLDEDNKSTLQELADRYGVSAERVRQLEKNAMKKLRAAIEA
Briefly: fluorescence polarization. As to conditions: sigma32 alone, no core enzyme; FP: 10 mM Tris-HCl pH 7.7, 100 mM NaCl, 1 mM DTT, 1% glycerol, 0.025% Tween-20, 5 nM DNA, 10-320 nM holoenzyme, room temperature, 5 min; recombinant protein; residues 1-284; protein details: His tag (pET28a, Ni-NTA).

A negative result means that nothing was seen under these conditions. Protein sequences can lack the tags named with them.

These results are taken from publication PMC10216364, “Structural Insight into the Mechanism of σ32-Mediated Transcription Initiation of Bacterial RNA Polymerase” (Biomolecules, 2023).

As for “CCTTGAAGACGTGG (double strand) [short -35 element DNA]”, the binding result is on record as “no binding”.
